Measured values: publication PMC12664722
Results are given in words; binding and its absence hold for the method and conditions named. Binding seen in cells or lysates may run through a third protein. Some binding calls cover weakened binding; strength is not graded here.

Amino acid sequences for entries named in this document (tags omitted). A change or cut given only in a name is not applied to a line headed by its entry.
UniProt P05556: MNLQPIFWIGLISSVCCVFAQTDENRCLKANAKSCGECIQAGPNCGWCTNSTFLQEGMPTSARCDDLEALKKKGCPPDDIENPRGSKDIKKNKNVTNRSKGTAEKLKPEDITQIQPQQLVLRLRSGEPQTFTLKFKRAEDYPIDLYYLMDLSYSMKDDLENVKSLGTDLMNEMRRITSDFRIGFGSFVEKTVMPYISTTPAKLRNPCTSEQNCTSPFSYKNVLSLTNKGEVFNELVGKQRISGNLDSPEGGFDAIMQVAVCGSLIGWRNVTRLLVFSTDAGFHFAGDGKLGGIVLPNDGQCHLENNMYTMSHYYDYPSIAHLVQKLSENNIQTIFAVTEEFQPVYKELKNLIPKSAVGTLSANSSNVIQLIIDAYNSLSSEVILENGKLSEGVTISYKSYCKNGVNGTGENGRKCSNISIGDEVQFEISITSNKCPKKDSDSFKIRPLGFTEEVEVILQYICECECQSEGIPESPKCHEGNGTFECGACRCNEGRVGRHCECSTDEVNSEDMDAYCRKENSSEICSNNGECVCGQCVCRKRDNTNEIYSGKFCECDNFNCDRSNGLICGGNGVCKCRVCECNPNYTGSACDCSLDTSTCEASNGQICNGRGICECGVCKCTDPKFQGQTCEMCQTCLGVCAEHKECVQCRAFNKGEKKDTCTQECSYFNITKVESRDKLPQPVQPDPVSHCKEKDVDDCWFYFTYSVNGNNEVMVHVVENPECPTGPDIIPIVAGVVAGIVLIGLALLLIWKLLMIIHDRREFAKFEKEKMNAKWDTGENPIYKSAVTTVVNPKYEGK

Tests used:
[1] = target: T1, COL6A2 (α2 chain of collagen VI) (human (endogenous in OSRC-2)) (UniProt P12110); assay: co-IP; reciprocal co-IP of endogenous proteins from OSRC-2 lysate (IP lysis buffer, pre-cleared with Protein A/G magnetic beads); anti-COL6A2 or anti-integrin β1 antibody or normal rabbit IgG overnight at 4 °C, beads 4 h, three washes, Western blot
T1 sequence: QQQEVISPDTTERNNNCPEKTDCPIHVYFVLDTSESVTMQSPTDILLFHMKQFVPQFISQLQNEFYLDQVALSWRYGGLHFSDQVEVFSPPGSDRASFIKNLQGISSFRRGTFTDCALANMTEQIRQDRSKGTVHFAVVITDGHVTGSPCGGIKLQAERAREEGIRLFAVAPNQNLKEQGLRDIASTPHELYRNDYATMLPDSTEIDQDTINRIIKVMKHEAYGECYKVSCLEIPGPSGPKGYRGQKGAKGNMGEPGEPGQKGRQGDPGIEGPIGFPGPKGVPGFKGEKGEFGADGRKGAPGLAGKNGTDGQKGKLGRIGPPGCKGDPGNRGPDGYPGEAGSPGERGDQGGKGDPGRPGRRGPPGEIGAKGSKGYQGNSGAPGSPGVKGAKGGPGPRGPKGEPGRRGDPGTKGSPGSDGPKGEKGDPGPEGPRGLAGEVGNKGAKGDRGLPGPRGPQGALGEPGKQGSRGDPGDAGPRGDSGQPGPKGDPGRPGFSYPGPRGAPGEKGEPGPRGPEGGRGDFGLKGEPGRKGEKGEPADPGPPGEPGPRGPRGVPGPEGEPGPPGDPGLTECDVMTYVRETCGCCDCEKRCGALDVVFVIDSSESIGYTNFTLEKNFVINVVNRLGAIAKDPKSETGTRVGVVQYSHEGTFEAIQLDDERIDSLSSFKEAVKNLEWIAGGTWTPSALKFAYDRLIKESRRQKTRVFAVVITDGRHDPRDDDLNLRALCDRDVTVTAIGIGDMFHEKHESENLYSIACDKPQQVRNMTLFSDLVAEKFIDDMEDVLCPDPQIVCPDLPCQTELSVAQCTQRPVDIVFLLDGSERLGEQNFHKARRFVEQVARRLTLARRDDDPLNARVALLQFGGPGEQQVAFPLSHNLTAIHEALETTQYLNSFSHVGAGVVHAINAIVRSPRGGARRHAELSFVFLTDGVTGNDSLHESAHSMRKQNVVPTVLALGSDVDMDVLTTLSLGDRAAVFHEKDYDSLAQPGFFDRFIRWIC

[2] = target: integrin β1 (human (endogenous in OSRC-2)) (UniProt P05556); assay: as above

In the case of “integrin β1 (from UniProt P05556 21-798) (receptor)”, the binding [1] is reported as “binds”.

B1: COL6A2 (α2 chain of collagen VI) (protein, UniProt P12110 21-1019)
chain: T1 sequence
In the case of B1, the binding [2] is reported as “binds”.
